From PubChem BioAssay AID1347423 (Functional Genomics Laboratory (NCATS/FGL), 2020) come the findings set out here.

In all, about 52,000 sequences went through this assay and about 210 (0.4%) were called active.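 How the source made its calls: active means gene whose silencing raises cell survival under the drug, median off-target-corrected z-score across its silencing RNAs 2 or more; inactive means the rest.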 The list shows a part of the results.

The assay in a line: Resistance to Poly (ADP-Ribose) Polymerase inhibitor: Gene Identification via Genome-wide siRNA Screen. The note with it: mouse BRCA2 R2336H ES cells, olaparib, CellTiter-Glo viability; active compounds read high. The procedure, abridged:
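Genome-wide siRNA screen (3 siRNAs/gene, 20 nM) in mouse ES cells carrying hypomorphic BRCA2 R2336H; olaparib 500 nM added 48 h post-transfection, CellTiter-Glo viability 72 h later. Normalized to plate-median negative control; MAD z-scores, gene median, seed-adjusted.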
(In general: ATP-based viability assays read luminescence as a measure of living cells.)
For the sequence “GCAUUCAUACAUGUAACAGTT against 4833422F06Rik”, the z-score is inactive: 0.619.

Turning to GGACCCUGUUCUUUGCUUATT against Npn3, the z-score is inactive: 0.646.

Consider GGAUCACUGCUUUUACCACTT against Adam19, for which the z-score is inactive: -0.43.

As for CCAGUAGGACUAGCAACACTT against Gast, the z-score is inactive: 0.913.

Take GGCUGGAAAGGAGGAUACATT against Fbxl19: the z-score is inactive: 0.362.

With CCGCUGGUGUGAUCACAAUTT against Slc5a2, the z-score is inactive: 0.684.

Take GUGUUUUAGUGCGAGUCCUTT against Klrb1a: the z-score was inactive: 0.926.

Consider GGGCAAAACAGAAAUUCAATT against Sypl, for which the z-score was inactive: 2.11.

Turning to CGACAGUCUAGCAUGUAACTT against Vmd2, the z-score was inactive: -1.28.

With GGCAAUUGUCUCAUUCUGATT against Olfr631, the z-score is inactive: -1.67.

For GGGUUGACCACUAUUUCUGTT against Olfr1338, the z-score was inactive: -0.6.

With GGAGAUCAAUGAGAAGAUCTT against Akap3, the z-score was inactive: 0.111.

As for “GGCAAUCCCACAUCCUCGATT against 1200009B18Rik”, the z-score was inactive: 0.184.

As for GGCUUAAUUGUUUGUGUGATT against Slc18a2, the z-score is inactive: 0.483.

For the sequence GGGAAAAGUAUCCUCUGUUTT against Olfr877, the z-score is inactive: -1.81.

Take GGAGAACAGACACAGGGUGTT against Dlg7: the z-score is inactive: -2.13.

GGACCUCAGAGAAGUGCAGTT against Ssbp4: the z-score was inactive: -0.636.

In the case of GGACAUCAACGACAACAAUTT against Pcdhgc3, the z-score was inactive: 1.54.

With “GGGUUUUUUUAGAGAGAUUTT against 1700017I11Rik”, the z-score is inactive: 0.102.

On to “GAGCCAUAUACCUCGUCCUTT against 2700087H15Rik”, for which the z-score is inactive: 0.598.

For CCCUGGAGUAAACUCAAAUTT against Onecut2, the z-score was inactive: 1.2.

On to “GCUAGCAGAGAUACAAUGUTT against A430107D22Rik”, for which the z-score is inactive: -2.37.

As for CGGAAACCUUGCACAAUAUTT against Blcap, the z-score was inactive: 1.25.

Consider CCACCACAGCUGAAGUCAGTT against Fen1, for which the z-score was inactive: 0.72.

On to GCCUUACCAUACCAUGGAGTT against Ltap, for which the z-score is inactive: -1.37.

Turning to GCAGCUUAGCCCAAAGAUCTT against Gstm6, the z-score was inactive: -0.849.

Regarding GCCAGAAGUGAAAAUCGAATT against Fkbp14, the z-score was inactive: -0.39.

In the case of CCAAUCAGACACCUACAAGTT against Myo1f, the z-score is inactive: -0.299.

With GCUUGACACAAGAGAUUGATT against BC031593, the z-score was inactive: -0.149.

On to GGAAGAGUUUAUGAUCCUCTT against Esrrb, for which the z-score was inactive: 0.472.

Take GCAGCGAAAGGAUUGACAATT against Elovl5: the z-score was inactive: 0.322.

Turning to “CCACUGUAAAAGAUUUGGCTT against A730045E13Rik”, the z-score is inactive: -0.559.

On to CUCCUAUGGAACAUCUCCATT against Ndufs6, for which the z-score is inactive: 1.86.

CGGGUAUGUGACUGUCAGUTT against D11Moh34: the z-score is inactive: -1.35.

With GCAAGAGCUGAGUACUCUGTT against Eraf, the z-score was inactive: 3.28.

On to “GGAAAAGUUCAGAGCUUAUTT against 1190005F20Rik”, for which the z-score was inactive: -0.951.

For the sequence GCAACAAUUGAGCAAUUCATT against Bag1, the z-score is inactive: -0.804.

GGCUGGAAGAUGACCUGCATT against Tnni3k: the z-score is inactive: -0.541.

As to GGCCAGUCCAAAGACCAUCTT against Hsd3b7, the z-score is inactive: 1.06.

As to “GGUUCUAUCUACCUACAGGTT against 9830123M21Rik”, the z-score was inactive: 0.537.

As to GCAAGGCGCAUAAUGGGAGTT against Alox5ap, the z-score is inactive: 0.0845.

Consider “CCCGCUGUUUACACUAACGTT against 1200016C12Rik”, for which the z-score was inactive: 0.0243.

Consider GGGAGUCUACACAUUAUAUTT against Ceacam10, for which the z-score was inactive: 1.01.

Take GCCCUACCAAAGACACUAGTT against Lrch4: the z-score is inactive: 0.462.

GGAGGGUAAGACAAUGCACTT against Tmem17: the z-score is inactive: -0.354.

As to GGUUUUUGAUCUUUGUGUCTT against Nr2c1, the z-score is inactive: 1.47.

As for CGCAUGCUUCGGUACAUCATT against H2afy, the z-score is inactive: 0.796.

Take CCAUGACCAGGAUGGAUCATT against Hcr: the z-score was inactive: -0.422.

Consider GGGCUUAUUCUGUUAAUAGTT against Mttp, for which the z-score was inactive: 0.298.

In the case of GCUUGUGGUCUUUAUCUUCTT against Olfr1490, the z-score is inactive: 0.325.

For the sequence “GCUGAUUUAUAACAGGCGUTT against 4931440N07Rik”, the z-score was inactive: -0.452.

Take GGGUUCCAUAUGAUUGCUCTT against St18: the z-score is inactive: -1.26.

As for GGCAAGGAUUUGUGUUUGCTT against C78915, the z-score is inactive: 1.18.

As to GGAAUUAAAAGAGCUGGGCTT against Sepn1, the z-score was inactive: 0.443.

Take CCCAUGGUCACUUAUAUAUTT against Jarid2: the z-score is inactive: 0.363.

“GCCUGUGCCUUUUGAAUUCTT against 0610010K06Rik”: the z-score was inactive: 0.511.

Consider CCAAUUCAUGGUGUUCUUUTT against H2-Aa, for which the z-score is inactive: 0.625.

As for CGGCAAUGCGUUUCCUUUUTT against Lama4, the z-score is inactive: 0.402.

As for GGAACAACAAAAAUUCCAATT against Tor1b, the z-score was inactive: -0.593.

In the case of GGCAGAAGCCUAAAACGGUTT against Nudt2, the z-score is inactive: 0.00231.

Regarding CCAUACAAUAAGAGUGCUATT against Dcir2, the z-score was inactive: -1.61.

For GGGCUUCUCUUUGCACUCUTT against Olfr1366, the z-score is inactive: 0.993.

In the case of GGUCAUCCGAGAUUUCACCTT against Elavl3, the z-score was inactive: 0.236.

In the case of “GCCCUGAGUGGUUCAAUAATT against 5730437N04Rik”, the z-score was inactive: -1.98.

Regarding “GGGUAGAAGUUGAUGUCAUTT against 2310042N02Rik”, the z-score is inactive: 0.111.

For “GGUCAUUCCAGCAAGGGUATT against D130079A08Rik”, the z-score is inactive: -0.475.

Take GCAGUUAGGUGUCGUAUAUTT against Lrpprc: the z-score is inactive: 0.273.

GCCAUUACUAUGAUUAUCCTT against Itgb1: the z-score is inactive: 0.473.

With GGAGCAUCUCUCCAGAUUGTT against Igsf9, the z-score was inactive: -1.25.

“GGGCCACUGCCAAAUACUATT against 2510009E07Rik”: the z-score is inactive: -1.12.

As for GGUACUCAUAAAACAUGAATT against Ticam2, the z-score was inactive: -0.182.

GGCAAAAUGUAUGGUAGAATT against Tead1: the z-score is inactive: -1.39.

For the sequence GCUAGGAUUUCAGCAUAUATT against Adra1a, the z-score is inactive: 1.62.

As for GCGAAUAGGAUCCAGCUAUTT against Sin3b, the z-score was inactive: -1.56.

Take GCGGGAUUGGUCAUUCCACTT against Mrpl45: the z-score was inactive: 0.404.

Consider “GGAUAUUGAACACUUCUUGTT against D330017J20Rik”, for which the z-score is inactive: 1.25.

On to GCUAUUUUUGUGGGUGAUUTT against Otx2, for which the z-score is inactive: -1.01.

Regarding GGAUAAGAAACGCAGAGUUTT against Dnmt1, the z-score is inactive: 0.345.

GCUUCCUACCAUGAUGGUCTT against Gm414: the z-score is inactive: 0.553.

Regarding GGGUGCGGAAAUUCAUUAATT against BC051227, the z-score is inactive: 0.578.

Take GGGUGUUGGAAAUUAAUCUTT against Rpl31: the z-score was inactive: -1.3.

For CCUCGAGUGGUUGGAUAAGTT against D11Wsu68e, the z-score is inactive: -0.793.

On to GGUUGGGCUGCCAAGUUUGTT against Fdx1, for which the z-score was inactive: -0.214.

With GGUGAUAAAUCCAAAAAAGTT against Cpne5, the z-score is inactive: 1.57.

Regarding “GGUAAGAGGAUCCAAGGUGTT against 2900046G09Rik”, the z-score is inactive: -0.327.

As for “GCAAGACACUUGAUAACUCTT against 1700022C21Rik”, the z-score was inactive: 0.167.

Turning to CGCAGCUGAAUAUGUGAAGTT against H2-M10.5, the z-score was inactive: -0.87.

For “GGCGAUAGACGAGUAUCAGTT against 2610208M17Rik”, the z-score was inactive: 0.529.

With GGUUCUCCACAUGGUGAAUTT against Aptx, the z-score was inactive: -0.407.

GGUGUUGAAAGUCAUUGUGTT against Crsp8: the z-score was inactive: -0.142.

Regarding GGGAAGACUAUCUCGUGACTT against Aatk, the z-score was inactive: -0.38.

In the case of “CCAUUAACACCUGUUAAUGTT against 2610209A20Rik”, the z-score is inactive: -0.104.

Turning to GCUGAAUCACAAGUACUGGTT against BC002236, the z-score is inactive: 0.441.

On to “GCCCAUUAAUGGGAUAUAATT against 2310042L06Rik”, for which the z-score was inactive: -2.76.

For CGCUCUCUGGAUUUAUCCATT against Agt, the z-score was inactive: 1.16.

As to GCCGUAUCGAUUCUAUUUCTT against Slc6a17, the z-score is inactive: -0.739.

Turning to UCUCCUUCAUUCCAUGCCUTT against Olfr438, the z-score was inactive: -0.0141.

For the sequence “GGAAUCAGUUAAAGAGAUCTT against 2700023J09Rik”, the z-score is inactive: 0.815.

As to GGAAAACCAACAAAGCAAATT against Pde10a, the z-score was inactive: 0.556.

Take “CCUCAAAUUAUUGUUGGCATT against B430315C20Rik”: the z-score was inactive: 0.141.

Consider CGAUGAAAUCAUCACUAUCTT against Cyfip1, for which the z-score is inactive: -0.619.

Take GCGGGACUUUAUCUCAUCCTT against AI317395: the z-score is inactive: 1.45.

GGUGCAUAGCAUACCCUAGTT against Hlf: the z-score was inactive: -1.23.

For GGAAGCAGAAUUGUAAAGATT against Bid3, the z-score was active: 2.41.
